Laboratory results as given in PubChem BioAssay AID504327 (National Center for Advancing Translational Sciences (NCATS), 2011).
The whole screen tested about 390,000 compounds, of which about 820 (0.21%) were called active. This list was built around the results that the source calls inconclusive (neither active nor inactive); the mix of calls is not that of the screen. Calls come from the whole dose curve; as a rule, active = well fitted inhibition curve with a large enough effect; inconclusive = small, poorly fitted or top-dose-only effect, or another doubt; inactive = no such curve, though single readings can be large or run the other way. Where the call is inconclusive, the potency comes from a doubtful curve fit.
% is set by controls: 0 for no effect and ±100 for the full control effect; potency is the fitted concentration of half-maximal effect.

Chains of the proteins cited; added tags and fusions are not shown.
UniProt Q92830, whole entry, looked up: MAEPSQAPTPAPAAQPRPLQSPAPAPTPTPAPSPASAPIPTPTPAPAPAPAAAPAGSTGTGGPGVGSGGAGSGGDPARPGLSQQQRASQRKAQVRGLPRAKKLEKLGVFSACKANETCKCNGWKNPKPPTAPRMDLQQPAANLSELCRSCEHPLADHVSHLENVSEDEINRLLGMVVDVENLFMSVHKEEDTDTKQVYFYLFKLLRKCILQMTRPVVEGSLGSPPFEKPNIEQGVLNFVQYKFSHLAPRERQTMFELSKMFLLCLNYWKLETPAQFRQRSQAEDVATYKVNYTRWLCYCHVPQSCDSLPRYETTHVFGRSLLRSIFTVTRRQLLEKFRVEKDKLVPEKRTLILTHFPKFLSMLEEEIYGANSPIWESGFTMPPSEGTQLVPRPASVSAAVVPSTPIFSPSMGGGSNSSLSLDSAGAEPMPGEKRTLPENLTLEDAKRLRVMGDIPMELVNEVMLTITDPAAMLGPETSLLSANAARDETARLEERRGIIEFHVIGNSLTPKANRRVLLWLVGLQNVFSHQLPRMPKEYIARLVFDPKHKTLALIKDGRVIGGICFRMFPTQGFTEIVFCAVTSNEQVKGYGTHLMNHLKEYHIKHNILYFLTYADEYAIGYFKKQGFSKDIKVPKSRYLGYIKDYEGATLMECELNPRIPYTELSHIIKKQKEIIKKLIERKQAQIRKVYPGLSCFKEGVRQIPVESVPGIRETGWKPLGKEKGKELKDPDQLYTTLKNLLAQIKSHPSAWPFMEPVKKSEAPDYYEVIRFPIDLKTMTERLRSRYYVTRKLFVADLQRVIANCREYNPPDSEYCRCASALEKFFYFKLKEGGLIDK

These compounds were tested against Histone acetyltransferase KAT2A (Homo sapiens) (UniProt Q92830) (assay: qHTS Assay for Inhibitors of GCN5L2). Details: GCN5L2 HAT assay, ThioGlo1 CoA-SH fluorescence; activity change, negative = inhibition: at 58.9 µM (top of the series) unless noted.
Outline: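 Preincubate 20nM GCN5L2 with compound 15 min, RT → add 50uM ThioGlo1 + 75uM H3(1-25) + 70uM acetyl-CoA → read fluorescence 0 and 20 min. Primary qHTS; fluorescent artifacts likely.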
COc1cc(C(=O)NC2CC3CCCC(C2)N3C2CC2)cc(OC)c1OC (stereo not given) was tested, and the “activity change, negative = inhibition” value was inactive: 1.73%. For CC(C)C(O)P(=O)(OCc1ccccc1)c1ccc(N(C)C)cc1 (stereo not given), the Potency was inconclusive: 0.794 µM [inhibitor, single point]. With c1ccc(Sc2cccc3ccccc23)c(CNC2=NCCN2)c1 the “activity change, negative = inhibition” value was inactive: -20.3%. In the case of O=C(c1ccc(Cl)cc1Cl)N1CCN(c2ccc(N3CCOCC3)nn2)CC1, the “activity change, negative = inhibition” value is reported as inactive: -17.1%. With C#CCOCCOCCOCCNc1nc(N2CCN(C(=O)[C@H](CCCCN)n3cc([C@@H](N)C(C)CC)nn3)CC2)nc(N2CCN(C(=O)[C@H](Cc3ccc(O)cc3)n3cc([C@@H](N)CC(C)C)nn3)CC2)n1 (stereo not given in full) the “activity change, negative = inhibition” value was inactive: 1.91%. O=C(Nc1ccc(Oc2ccc(C(=O)O)c(C(=O)O)c2)cc1)c1cccs1 was tested, and the Potency was inconclusive: 39.8 µM [inhibitor, single point]. S=c1[nH]nc(COc2ccccc2)n1/N=C/c1cccc(Br)c1 was tested, and the “activity change, negative = inhibition” value was inactive: -1.79%. In the case of CC(C)NC(=O)c1cc(-c2ccco2)nn1-c1ccc(Cl)cc1, the Potency is reported as inconclusive: 31.6 µM [inhibitor, single point]. With O=c1ccc2cc(S(=O)(=O)N3CCN(c4ccccc4)CC3)ccc2[nH]1 the Potency was inconclusive: 35.5 µM [inhibitor, partial curve]. In the case of COc1cc(/C=N\NC(=O)c2cccnc2)ccc1OC(=O)c1ccccc1Cl, the Potency is reported as inconclusive: 2.51 µM [inhibitor, partial curve]. With Cc1ccc(S(=O)(=O)NCCc2cn3ccsc3n2)c(C)c1 the “activity change, negative = inhibition” value was inactive: 0.244%. In the case of CCOC(=O)c1[nH]c2ccc(OC)cc2c1NC(=O)N1CCOCC1, the Potency is reported as inconclusive: 6.31 µM [inhibitor, single point]. CN1CCN(Cc2cc(COCc3ccccc3)c3cccnc3c2O)CC1 was tested, and the Potency was “inactive”. COc1ccc(NC(=O)/C(=C\c2ccc(OC)c(OC)c2)NC(=O)c2ccco2)cc1 was tested, and the “activity change, negative = inhibition” value was inactive: 2.2%. For O=C(NCC1CCCO1)c1cc(S(=O)(=O)N2CCCC2)c(Cl)cc1Cl (stereo not given), the Potency was inconclusive: 0.794 µM [inhibitor, single point]. With O=C(N/N=C/C=C/c1ccco1)c1cccs1 the Potency was inconclusive: 35.5 µM [inhibitor, single point]. CSc1cc(C)c(OCC(=O)Nc2c(C)nn(C)c2C)c(C)c1 was tested, and the Potency was inconclusive: 3.55 µM [inhibitor, single point]. CCc1ccc(-c2cc(C(=O)NCCCn3ccnc3)c3ccccc3n2)s1 was tested, and the Potency was inconclusive: 39.8 µM [inhibitor, single point]. CSc1ncccc1C(=O)OCC(=O)c1ccc(Br)s1 was tested, and the “activity change, negative = inhibition” value was inactive: -8.71%. In the case of O=C(NC(=S)NC1CCCc2ccccc21)c1ccc(F)cc1 (stereo not given), the Potency is reported as inconclusive: 35.5 µM [inhibitor, single point]. CSc1ccccc1OCc1cc(C(=O)NC(C)Cn2cncn2)no1 (stereo not given) was tested, and the Potency was inconclusive: 0.794 µM [inhibitor, single point]. With Cc1cccc(N2CCN(C(=O)c3noc4c3COc3ccc(C)cc3-4)CC2C)c1 (stereo not given) the Potency was inconclusive: 0.794 µM [inhibitor, single point]. For COc1ccccc1/C=C/C=N/NC(=O)c1cc(-c2ccco2)[nH]n1, the Potency was inconclusive: 25.1 µM [inhibitor, partial curve, poor fit]. In the case of O=C(CN1C(=O)NC2(CCCCC2)C1=O)Oc1ccc2c(C(F)(F)F)cc(=O)oc2c1, the Potency is reported as inconclusive: 10 µM [inhibitor, partial curve]. With Cc1ccc(C)c(NS(=O)(=O)c2ccc3[nH]c(=O)[nH]c3c2)c1 the “activity change, negative = inhibition” value was inactive: -26.9%. CCc1nccn1CCC(=O)N1CCCC(Nc2ccc(C(C)C)cc2)C1 (stereo not given) was tested, and the Potency was inconclusive: 28.2 µM [inhibitor, partial curve, poor fit]. CC(C)c1ccc(NS(=O)(=O)c2ccc3c(c2)NC(=O)CO3)cc1 was tested, and the Potency was inconclusive: 0.282 µM [inhibitor, full curve, poor fit]. In the case of CCOc1ccccc1-c1cc(C(=O)N/N=C(\C)c2cccnc2)c2ccccc2n1, the Potency is reported as inconclusive: 0.141 µM [inhibitor, full curve, poor fit]. In the case of COc1cc(/C=C2/C(=O)NN(c3ccc(Cl)cc3)C2=O)ccc1OC(=O)c1ccco1, the Potency is reported as inconclusive: 39.8 µM [inhibitor, single point]. COc1cc([N+](=O)[O-])cc(/C=N\NC(=O)C2COc3ccccc3O2)c1O (stereo not given) was tested, and the Potency was inconclusive: 39.8 µM [inhibitor, single point]. With COC(=O)c1ccc(Oc2c(C)oc3c(CN4CCN(C)CC4)c(O)ccc3c2=O)cc1 the Potency was inconclusive: 28.2 µM [inhibitor, single point]. With CCC(c1nnnn1CCOC)N(Cc1cc2cc(C)c(C)cc2[nH]c1=O)CC1CCCO1 (stereo not given) the “activity change, negative = inhibition” value was inactive: -2%. CCOc1cc(C(=O)NCC(c2ccc(N(C)C)cc2)N2CCOCC2)cc(OCC)c1OCC (stereo not given) was tested, and the “activity change, negative = inhibition” value was inactive: -0.684%. Oc1cccc(C=Nc2cccc3ccccc23)c1O was tested, and the Potency was inconclusive: 12.6 µM [inhibitor, partial curve]. COC(=O)c1[nH]c2ccccc2c1NC(=O)CNC1CCCCC1 was tested, and the Potency was inconclusive: 31.6 µM [inhibitor, single point]. With COc1ccc(CNC(=O)c2ccncc2)cc1 the Potency was inconclusive: 14.1 µM [inhibitor, partial curve, poor fit]. CCc1cc(CNC(=O)C2CCC(=O)N(CCc3ccc(OC)cc3)C2)on1 (stereo not given) was tested, and the Potency was inconclusive: 44.7 µM [inhibitor, partial curve, poor fit]. With Cc1c(Cl)cnc(NC(=O)COC(=O)c2ccc3ncsc3c2)c1Cl the Potency was inconclusive: 39.8 µM [inhibitor, single point]. CCC(C(=O)N1CCN(c2ccccc2)CC1)n1c(C)c2cnn(-c3ccccc3)c(=O)c2c1C (stereo not given) was tested, and the “activity change, negative = inhibition” value was inactive: 0.584%. In the case of Fc1ccc(C2=CC(c3ccco3)n3ncnc3N2)cc1 (stereo not given), the “activity change, negative = inhibition” value is reported as inactive: -2.19%. With Cc1sc2nc(COC(=O)c3ccc(O)cc3)[nH]c(=O)c2c1C the Potency was inconclusive: 0.708 µM [inhibitor, single point]. In the case of O=C(O)c1[nH]c2ccccc2c1C(c1cc(Cl)cc([N+](=O)[O-])c1O)c1c(C(=O)O)[nH]c2ccccc12, the Potency is reported as inconclusive: 31.6 µM [inhibitor, single point]. For O=[N+]([O-])/C=C/c1cn(Cc2ccc(F)cc2)c2ccccc12, the “activity change, negative = inhibition” value was inactive: -24.6%. In the case of c1ccc(CNc2nc(-c3ccc4c(c3)OCO4)nc3ccccc23)cc1, the Potency is reported as inconclusive: 31.6 µM [inhibitor, partial curve]. O=c1cc(-c2ccccc2)nc(/C=C/c2ccccc2)[nH]1 was tested, and the Potency was inconclusive: 35.5 µM [inhibitor, single point]. CCOc1ccc2[nH]c(=O)c(CN(Cc3ccco3)Cc3nnnn3Cc3ccccc3)cc2c1 was tested, and the Potency was inconclusive: 35.5 µM [inhibitor, single point]. With C[C@@]12C(=O)N(c3cccc(Cl)c3)C(=O)N1[C@H](c1ccc(Cl)cc1)[C@@H]1C(=O)N(C3CCCCC3)C(=O)[C@@H]12 the Potency was inconclusive: 0.708 µM [inhibitor, full curve, poor fit]. In the case of Cc1cccc2cc(CN(CC3CCCO3)C(c3nnnn3Cc3ccco3)C(C)C)c(=O)[nH]c12 (stereo not given), the Potency is reported as inconclusive: 35.5 µM [inhibitor, partial curve]. With CCC1OC(=O)C(C)[C@@H](O[C@H]2C[C@@](C)(OC)C(O)C(C)O2)C(C)[C@@H](O[C@@H]2OC(C)CC(N(C)C)C2O)[C@@](C)(O)CC(C)C(=O)[C@@H](C)C(O)[C@]1(C)O (stereo not given in full) the Potency was inconclusive: 39.8 µM [inhibitor, single point]. In the case of COC(=O)c1ccccc1NC(=O)c1sc(Cl)nc1C, the Potency is reported as inconclusive: 0.708 µM [inhibitor, single point]. In the case of COc1ccc(C(=O)Nc2cc(-c3nc4ccccc4s3)ccc2OC)cc1, the “activity change, negative = inhibition” value is reported as inactive: -11.6%. COc1ccc(CCc2nnc(CCC(=O)NCc3cnc4ccccn34)o2)cc1 was tested, and the Potency was inconclusive: 39.8 µM [inhibitor, single point]. For C=Cc1ccc(Cn2c(C(=O)O)c(CNC3CCCCC3)c3ccc(OC)cc32)cc1, the Potency was inconclusive: 28.2 µM [inhibitor, single point]. In the case of CC(C)Oc1ccc(CNC(=O)c2ccc3c(c2)N(C)CCS3)cc1, the Potency is reported as inconclusive: 0.708 µM [inhibitor, full curve, poor fit]. For Cc1ccc(S(=O)(=O)N2CCc3c2cc([N+](=O)[O-])cc3[N+](=O)[O-])cc1, the Potency was inconclusive: 7.08 µM [inhibitor, single point]. With CCCCn1c(N)c(N(CCOC)C(=O)CSCc2c(C)noc2C)c(=O)[nH]c1=O the Potency was inconclusive: 4.47 µM [inhibitor, single point]. O=C(c1ccoc1)N1CCCC(CO)(CCCc2ccccc2)C1 (stereo not given) was tested, and the Potency was inconclusive: 0.891 µM [inhibitor, full curve, poor fit]. With Cc1onc(-c2c(Cl)cccc2Cl)c1C(N)=S the “activity change, negative = inhibition” value was inactive: -2.23%. In the case of O=C(N/N=C/c1ccc(Sc2ccccn2)o1)c1cc2ccccc2cc1O, the Potency is reported as inconclusive: 25.1 µM [inhibitor, partial curve]. In the case of Cc1ccc(Cl)cc1N1CCN(C(=O)CSc2cc(=O)n(C)c3ccccc23)CC1, the “activity change, negative = inhibition” value is reported as inactive: -22.2%. With COc1ccccc1C1CC(=O)NC(C)=C1C(=O)OCC(C)C (stereo not given) the Potency was inconclusive: 0.708 µM [inhibitor, full curve, poor fit]. For O=C1c2cccc3cccc(c23)C(=O)N1Cc1ccccc1, the Potency was inconclusive: 39.8 µM [inhibitor, single point]. In the case of CN(C)S(=O)(=O)c1cc(NC(=O)COC(=O)c2nc(Cl)ccc2Cl)ccc1Cl, the “activity change, negative = inhibition” value is reported as inactive: -9.4%. With COc1ccc2sc(-c3ccc(N(C)C)cc3)c(C#CCCO)c2c1 the Potency was inconclusive: 35.5 µM [inhibitor, single point]. For C=CCNC(=S)N/N=C(\C)c1cccc(OC)c1, the Potency was inconclusive: 39.8 µM [inhibitor, single point].
